From paper PMC9452577
These are yes or no findings as the source states them, for the method shown. In cells and extracts the contact can be indirect. Some results given as binding are weak or reduced against the parent protein; the word gives no strength.

The chains behind the UniProt entries cited, without tags or fusion partners.
UniProt P53805: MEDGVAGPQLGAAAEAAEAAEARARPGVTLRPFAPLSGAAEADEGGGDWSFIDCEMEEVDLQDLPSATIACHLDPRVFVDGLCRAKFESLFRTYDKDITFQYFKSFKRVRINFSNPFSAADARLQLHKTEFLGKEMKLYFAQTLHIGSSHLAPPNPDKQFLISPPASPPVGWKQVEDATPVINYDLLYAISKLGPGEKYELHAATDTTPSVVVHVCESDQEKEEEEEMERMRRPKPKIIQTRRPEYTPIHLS

Biological target: Regulator of calcineurin 1 (RCAN1), endogenous (human (endogenous in HK-2)) (UniProt P53805)
Test: co-IP; endogenous proteins in HK-2 cells under hypoxia/reoxygenation (HR) injury; 1 mg total lysate (1% Triton X-100, 150 mM NaCl, 60 mM octyl glucoside buffer) with anti-RCAN1, anti-JNK or anti-Mff overnight at 4 °C, protein A/G magnetic beads; IgG control; immunoblot

B1: Mitochondrial fission factor (Mff), endogenous (protein, UniProt Q9GZY8 1-342)
chain: MSKGTSSDTSLGRVSRAAFPSPTAAEMAEISRIQYEMEYTEGISQRMRVPEKLKVAPPNADLEQGFQEGVPNASVIMQVPERIVVAGNNEDVSFSRPADLDLIQSTPFKPLALKTPPRVLTLSERPLDFLDLERPPTTPQNEEIRAVGRLKRERSMSENAVRQNGQLVRNDSLWHRSDSAPRNKISRFQAPISAPEYTVTPSPQQARVCPPHMLPEDGANLSSARGILSLIQSSTRRAYQQILDVLDENRRPVLRGGSAAATSNPHHDNVRYGISNIDTTIEGTSDDLTVVDAASLRRQIIKLNRRLQLLEEENKERAKREMVMYSITVAFWLLNSWLWFRR
binding: binds
